Experimental data taken from publication PMC6803667, “Binding site plasticity in viral PPxY Late domain recognition by the third WW domain of human NEDD4” (Scientific Reports, 2019).
Results are given in words; binding and its absence hold for the method and conditions named.

Chains of the proteins cited; added tags and fusions are not shown. Residues count along the entry.
first WW domain of human YAP2 (YAP-WW1) (P46937, residues 165-209): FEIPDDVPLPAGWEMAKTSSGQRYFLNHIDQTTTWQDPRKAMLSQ
second WW domain of human YAP2 (YAP-WW2) (P46937, residues 228-271): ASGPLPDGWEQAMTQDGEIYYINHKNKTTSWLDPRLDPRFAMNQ

B1: HTLV1ter Late domain peptide (peptide)
peptide: PPPYVEPTAP
modifications: acetylated N-terminus, amidated C-terminus
B2: Rabies Late domain peptide (peptide)
peptide: DLWLPPPEYVPL

Columns and labels:
[1] = target: first WW domain of human YAP2 (YAP-WW1) (human) (UniProt P46937); test: ITC; both purified
[2] = target: second WW domain of human YAP2 (YAP-WW2) (human) (UniProt P46937); test: ITC; both purified

Row | Binder | binding [1] | binding [2]
1 | B1 | no binding | no binding
2 | B2 |  | no binding
